# Results as given in the supplement of paper PMC10077471.
# In all, about 1,900 compounds were measured (“excess over highest single agent (ExcessHSA) synergy score, 6x6 matrix”: median about -83, lowest 2% from about -370 on). The list shows a part of the results.
# System: NCI-H446
# Assay: excess over highest single agent (ExcessHSA) synergy score, 6x6 matrix; higher = less synergy (more negative = stronger synergy)
# Details: 72 h; CellTiter-Glo viability
row,SMILES,excess over highest single agent
1,CC(C)[C@H](N)C(=O)OCCOCn1cnc2c(=O)nc(N)[nH]c21 + Cc1sc2c(c1C)C(c1ccc(Cl)cc1)=N[C@@H](CC(=O)OC(C)(C)C)c1nnc(C)n1-2 [NCGC00250412-19],43.6
2,COC1=C[C@@H]2[C@@H]3Cc4ccc(OC)c(O)c4[C@]2(CCN3C)CC1=O + Cc1sc2c(c1C)C(c1ccc(Cl)cc1)=N[C@@H](CC(=O)OC(C)(C)C)c1nnc(C)n1-2 [NCGC00250412-19],-139
3,C/C(=C\c1csc(C)n1)[C@@H]1C[C@@H]2O[C@@H]2CCC[C@H](C)[C@H](O)[C@@H](C)C(=O)C(C)(C)[C@@H](O)CC(=O)O1 + Cc1sc2c(c1C)C(c1ccc(Cl)cc1)=N[C@@H](CC(=O)OC(C)(C)C)c1nnc(C)n1-2 [NCGC00250412-19],-151
4,CC1(C)O[C@@H]2C[C@H]3[C@@H]4C[C@H](F)C5=CC(=O)C=C[C@]5(C)[C@@]4(F)[C@@H](O)C[C@]3(C)[C@]2(C(=O)CO)O1 + Cc1sc2c(c1C)C(c1ccc(Cl)cc1)=N[C@@H](CC(=O)OC(C)(C)C)c1nnc(C)n1-2 [NCGC00250412-19],-20.1
5,COC(=O)C1=CO[C@@H](O)[C@@H]2C(CO)=CC[C@H]12 + Cc1sc2c(c1C)C(c1ccc(Cl)cc1)=N[C@@H](CC(=O)OC(C)(C)C)c1nnc(C)n1-2 [NCGC00250412-19],-24.6
6,Cc1nc(C(=O)NCC(=O)O)c(O)c2ccc(Oc3ccccc3)cc12 + Cc1sc2c(c1C)C(c1ccc(Cl)cc1)=N[C@@H](CC(=O)OC(C)(C)C)c1nnc(C)n1-2 [NCGC00250412-19],-115
7,COc1cccc2c1C(=O)c1c(O)c3c(c(O)c1C2=O)C[C@@](O)(C(=O)CO)C[C@@H]3O[C@H]1C[C@H](N)[C@H](O[C@@H]2CCCCO2)[C@H](C)O1 + Cc1sc2c(c1C)C(c1ccc(Cl)cc1)=N[C@@H](CC(=O)OC(C)(C)C)c1nnc(C)n1-2 [NCGC00250412-19],-345
8,CCCCCCNC(=O)n1cc(F)c(=O)[nH]c1=O + Cc1sc2c(c1C)C(c1ccc(Cl)cc1)=N[C@@H](CC(=O)OC(C)(C)C)c1nnc(C)n1-2 [NCGC00250412-19],124
9,Nc1nc(=O)n([C@@H]2CS[C@H](CO)O2)cc1F + Cc1sc2c(c1C)C(c1ccc(Cl)cc1)=N[C@@H](CC(=O)OC(C)(C)C)c1nnc(C)n1-2 [NCGC00250412-19],-92.3
10,CC[C@@H]1C(=O)N(C)c2cnc(Nc3ccc(C(=O)N[C@H]4CC[C@H](N5CCN(CC6CC6)CC5)CC4)cc3OC)nc2N1C(C)C + Cc1sc2c(c1C)C(c1ccc(Cl)cc1)=N[C@@H](CC(=O)OC(C)(C)C)c1nnc(C)n1-2 [NCGC00250412-19],-192
11,CCc1cccc(CC)c1NC(=O)N1Cc2[nH]nc(NC(=O)c3ccc(N4CCN(C)CC4)cc3)c2C1 + Cc1sc2c(c1C)C(c1ccc(Cl)cc1)=N[C@@H](CC(=O)OC(C)(C)C)c1nnc(C)n1-2 [NCGC00250412-19],-268
12,CC#C[C@]1(O)CC[C@H]2[C@@H]3CCC4=CC(=O)CCC4=C3[C@@H](c3ccc(N(C)C)cc3)C[C@@]21C + Cc1sc2c(c1C)C(c1ccc(Cl)cc1)=N[C@@H](CC(=O)OC(C)(C)C)c1nnc(C)n1-2 [NCGC00250412-19],-18.1
13,CN(C)CCc1ccc(O)cc1 + Cc1sc2c(c1C)C(c1ccc(Cl)cc1)=N[C@@H](CC(=O)OC(C)(C)C)c1nnc(C)n1-2 [NCGC00250412-19],-69.9
14,CCOC(=O)C1=C(N)Oc2ccc(Br)cc2C1C(C#N)C(=O)OCC (stereo not drawn) + Cc1sc2c(c1C)C(c1ccc(Cl)cc1)=N[C@@H](CC(=O)OC(C)(C)C)c1nnc(C)n1-2 [NCGC00250412-19],-121
15,Cc1ccc(S(=O)(=O)Nc2nc3ccccc3nc2Nc2ccc3nsnc3c2)cc1 + Cc1sc2c(c1C)C(c1ccc(Cl)cc1)=N[C@@H](CC(=O)OC(C)(C)C)c1nnc(C)n1-2 [NCGC00250412-19],-88.8
16,C/C=C(/C)C(=O)O[C@H]1C(C)=C[C@]23C(=O)[C@@H](C=C(CO)[C@@H](O)[C@]12O)[C@H]1[C@@H](C[C@H]3C)C1(C)C + Cc1sc2c(c1C)C(c1ccc(Cl)cc1)=N[C@@H](CC(=O)OC(C)(C)C)c1nnc(C)n1-2 [NCGC00250412-19],104
17,CC(C)C(=O)Nc1ncc(-c2cc(C(F)F)nn2-c2c(Cl)cccc2Cl)s1 + Cc1sc2c(c1C)C(c1ccc(Cl)cc1)=N[C@@H](CC(=O)OC(C)(C)C)c1nnc(C)n1-2 [NCGC00250412-19],-105
18,CC(C)Oc1ccc2c(=O)c(-c3ccccc3)coc2c1 + Cc1sc2c(c1C)C(c1ccc(Cl)cc1)=N[C@@H](CC(=O)OC(C)(C)C)c1nnc(C)n1-2 [NCGC00250412-19],-14
19,CCCCOc1ccc(C(=O)Nc2ccc(F)cc2F)cc1 + Cc1sc2c(c1C)C(c1ccc(Cl)cc1)=N[C@@H](CC(=O)OC(C)(C)C)c1nnc(C)n1-2 [NCGC00250412-19],-60.1

row,SMILES,excess over highest single agent
1,Cc1cc2cc3c(C)cc(=O)oc3c(C)c2o1 + Cc1sc2c(c1C)C(c1ccc(Cl)cc1)=N[C@@H](CC(=O)OC(C)(C)C)c1nnc(C)n1-2 [NCGC00250412-19],-28.3
2,Clc1ccc2nsnc2c1NC1=NCCN1 + Cc1sc2c(c1C)C(c1ccc(Cl)cc1)=N[C@@H](CC(=O)OC(C)(C)C)c1nnc(C)n1-2 [NCGC00250412-19],-131
3,Cc1cc(Nc2cc(N3CCN(C)CC3)nc(Sc3ccc(NC(=O)C4CC4)cc3)n2)n[nH]1 + Cc1sc2c(c1C)C(c1ccc(Cl)cc1)=N[C@@H](CC(=O)OC(C)(C)C)c1nnc(C)n1-2 [NCGC00250412-19],-312
4,Cc1cc(C(C)Nc2ccccc2)c2nc(N3CCOCC3)cc(=O)n2c1 (stereo not drawn) + Cc1sc2c(c1C)C(c1ccc(Cl)cc1)=N[C@@H](CC(=O)OC(C)(C)C)c1nnc(C)n1-2 [NCGC00250412-19],-241
5,NC1(Cc2ccc(Cl)cc2)CCN(c2ncnc3[nH]ccc23)CC1 + Cc1sc2c(c1C)C(c1ccc(Cl)cc1)=N[C@@H](CC(=O)OC(C)(C)C)c1nnc(C)n1-2 [NCGC00250412-19],-66
6,COc1cc(CNC(=O)CCCC/C=C/C(C)C)ccc1O + Cc1sc2c(c1C)C(c1ccc(Cl)cc1)=N[C@@H](CC(=O)OC(C)(C)C)c1nnc(C)n1-2 [NCGC00250412-19],-7.24
7,Clc1ccc(C2(c3ccc(-c4cn[nH]c4)cc3)CCNCC2)cc1 + Cc1sc2c(c1C)C(c1ccc(Cl)cc1)=N[C@@H](CC(=O)OC(C)(C)C)c1nnc(C)n1-2 [NCGC00250412-19],-22.4
8,O=C(O)CCCCCC(=O)NN=C1CCCC1 + Cc1sc2c(c1C)C(c1ccc(Cl)cc1)=N[C@@H](CC(=O)OC(C)(C)C)c1nnc(C)n1-2 [NCGC00250412-19],16.4
9,C[C@]12CC[C@@H]3c4ccc(O)cc4C[C@@H](CCCCCCCCC[S+]([O-])CCCC(F)(F)C(F)(F)F)[C@H]3[C@@H]1CC[C@@H]2O (stereo partly drawn) + Cc1sc2c(c1C)C(c1ccc(Cl)cc1)=N[C@@H](CC(=O)OC(C)(C)C)c1nnc(C)n1-2 [NCGC00250412-19],-75.5
10,COC1CCC(C(=O)c2ccc3nc4c(cc3c2)CCCO4)CC1 (stereo not drawn) + Cc1sc2c(c1C)C(c1ccc(Cl)cc1)=N[C@@H](CC(=O)OC(C)(C)C)c1nnc(C)n1-2 [NCGC00250412-19],-20.6
11,NC(=O)C1CCCc2c1[nH]c1ccc(Cl)cc21 (stereo not drawn) + Cc1sc2c(c1C)C(c1ccc(Cl)cc1)=N[C@@H](CC(=O)OC(C)(C)C)c1nnc(C)n1-2 [NCGC00250412-19],-52.9
12,COC(=O)[C@H](Cc1ccccc1)NC(=O)[C@@H](N)CC(=O)O + Cc1sc2c(c1C)C(c1ccc(Cl)cc1)=N[C@@H](CC(=O)OC(C)(C)C)c1nnc(C)n1-2 [NCGC00250412-19],-46.3
13,CCS(=O)(=O)c1cccc(-c2cc(C(=O)NC3CCN(C)CC3)c(C)c3[nH]c4ncc(C)cc4c23)c1 + Cc1sc2c(c1C)C(c1ccc(Cl)cc1)=N[C@@H](CC(=O)OC(C)(C)C)c1nnc(C)n1-2 [NCGC00250412-19],-197
14,OCCn1cc(-c2ccc3c(c2)CC/C3=N\O)c(-c2ccncc2)n1 + Cc1sc2c(c1C)C(c1ccc(Cl)cc1)=N[C@@H](CC(=O)OC(C)(C)C)c1nnc(C)n1-2 [NCGC00250412-19],-137
15,N#Cc1c(N(CC(=O)O)CC(=O)O)sc(C(=O)O)c1CC(=O)O + Cc1sc2c(c1C)C(c1ccc(Cl)cc1)=N[C@@H](CC(=O)OC(C)(C)C)c1nnc(C)n1-2 [NCGC00250412-19],-47.5
16,CC[C@H]1OC(=O)[C@H](C)[C@@H](O[C@H]2C[C@@](C)(OC)[C@@H](O)[C@H](C)O2)[C@H](C)[C@@H](O[C@@H]2O[C@H](C)C[C@H](N(C)C)[C@H]2O)[C@](C)(O)C[C@@H](C)CN(C)[C@H](C)[C@@H](O)[C@]1(C)O + Cc1sc2c(c1C)C(c1ccc(Cl)cc1)=N[C@@H](CC(=O)OC(C)(C)C)c1nnc(C)n1-2 [NCGC00250412-19],-39.5
17,CCOC(=O)C1=C(C)NC(=S)NC1c1cccc(O)c1 (stereo not drawn) + Cc1sc2c(c1C)C(c1ccc(Cl)cc1)=N[C@@H](CC(=O)OC(C)(C)C)c1nnc(C)n1-2 [NCGC00250412-19],-88.8
18,O=C(O)c1cccc(-c2noc(-c3ccccc3F)n2)c1 + Cc1sc2c(c1C)C(c1ccc(Cl)cc1)=N[C@@H](CC(=O)OC(C)(C)C)c1nnc(C)n1-2 [NCGC00250412-19],-23.4
19,CC(C)[N+]1(C)[C@@H]2CC[C@H]1C[C@@H](OC(=O)C(CO)c1ccccc1)C2 (stereo partly drawn) + Cc1sc2c(c1C)C(c1ccc(Cl)cc1)=N[C@@H](CC(=O)OC(C)(C)C)c1nnc(C)n1-2 [NCGC00250412-19],17.3

# Single values from the entries so far:
# excess over highest single agent, C[C@]12CC[C@@H]3c4ccc(O)cc4C[C@@H](CCCCCCCCC[S+]([O-])CCCC(F)(F)C(F)(F)F)[C@H]3[C@@H]1CC[C@@H]2O (stereo partly drawn) + Cc1sc2c(c1C)C(c1ccc(Cl)cc1)=N[C@@H](CC(=O)OC(C)(C)C)c1nnc(C)n1-2 [NCGC00250412-19] is entered as -75.5
# excess over highest single agent, COC(=O)[C@H](Cc1ccccc1)NC(=O)[C@@H](N)CC(=O)O + Cc1sc2c(c1C)C(c1ccc(Cl)cc1)=N[C@@H](CC(=O)OC(C)(C)C)c1nnc(C)n1-2 [NCGC00250412-19] is entered as -46.3
